Experimental data: PubChem BioAssay AID1259254 (NCATS, 2017)

Assay: 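Genome-wide screen for genes that prevent DNA re-replication in cancer cells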 (primary screen)
Cells: human HCT116 colorectal cancer cells
Knock-down reagent: single siRNA against human genes
Duration: 3 days
Detection: 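Nuclei stained with Hoechst and imaged; cell-cycle phase assigned by DNA content; G2 share scaled per plate, non-targeting siRNA 0%, GMNN siRNA 100%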
Scale: G2 robust z-score: higher = more G2 cells, more excess DNA replication
Hit rule: 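Active siRNAs have a G2 robust z of 5 or more median absolute deviations over the median, which in these data means about 38% or higher of GMNN control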
In all, the deposit lists about 59,000 reagents; below is a part drawn at random. Of all reagents, about 1,550 (2.6%) are marked active. 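G2 share is only a proxy for re-replication; each gene was hit by three separate siRNAs, and active genes were retested.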 The numbers tell different reagents against one gene apart. Further read-outs or replicates are left out here. Reagent sequences are not shown. Not given: the amount of reagent.

G2 robust z-score, by gene and reagent
CES3 (carboxylesterase 3): #1 2.33 inactive; #2 0.271 inactive; #3 0.949 inactive
APRG1 (APRG1 tumor suppressor candidate): #1 -0.728 inactive; #2 6.14 active; #3 -0.546 inactive
RNF150 (ring finger protein 150): #1 0.529 inactive; #2 -0.623 inactive; #3 -0.476 inactive
RAB11FIP4 (RAB11 family interacting protein 4): #1 -0.336 inactive; #2 -0.0731 inactive; #3 3.22 inactive
HKDC1 (hexokinase domain containing 1): #1 0.344 inactive; #2 1.01 inactive; #3 0.613 inactive
TGFB1I1 (transforming growth factor beta 1 induced transcript 1): #1 0.848 inactive; #2 -1.09 inactive; #3 0.819 inactive

3 neighbouring records already listed, for reference:
G2 robust z-score, by gene and reagent
RNF150 (ring finger protein 150): #3 -0.476 inactive
RAB11FIP4 (RAB11 family interacting protein 4): #1 -0.336 inactive; #2 -0.0731 inactive

Continued.
G2 robust z-score, by gene and reagent
AKIP1 (A-kinase interacting protein 1): #1 0.305 inactive; #2 -0.196 inactive; #3 -0.501 inactive
OR10A6: #1 0.981 inactive; #2 -0.562 inactive; #3 -1.4 inactive
C20orf204 (chromosome 20 open reading frame 204): #1 -0.547 inactive; #2 0.178 inactive; #3 2.12 inactive
POFUT4 (protein O-fucosyltransferase 4): #1 -0.564 inactive; #2 0.816 inactive; #3 0.525 inactive
